# This continues a long series; more values of the same kind are listed elsewhere.
# Columns and labels:
# Type in all cases: cell-based
# Details in all cases: U-87MG ATCC
# [1] = Inhibition of RTK/PI3K/AKT/mTOR signaling in human U87 cells assessed as down regulation of RFPL4A gene expression at cytotoxic IC50 measured after 48 hrs relative to control
# [2] = Inhibition of RTK/PI3K/AKT/mTOR signaling in human U87 cells assessed as down regulation of CENPQ gene expression at cytotoxic IC50 measured after 48 hrs relative to control
# [3] = Inhibition of RTK/PI3K/AKT/mTOR signaling in human U87 cells assessed as down regulation of SDSL gene expression at cytotoxic IC50 measured after 48 hrs relative to control
# [4] = Inhibition of RTK/PI3K/AKT/mTOR signaling in human U87 cells assessed as down regulation of FAM219A gene expression at cytotoxic IC50 measured after 48 hrs relative to control
# [5] = Inhibition of RTK/PI3K/AKT/mTOR signaling in human U87 cells assessed as down regulation of HSPA6 gene expression at cytotoxic IC50 measured after 48 hrs relative to control
# [6] = Inhibition of RTK/PI3K/AKT/mTOR signaling in human U87 cells assessed as down regulation of GUK1 gene expression at cytotoxic IC50 measured after 48 hrs relative to control
# [7] = Inhibition of RTK/PI3K/AKT/mTOR signaling in human U87 cells assessed as down regulation of ZNF317 gene expression at cytotoxic IC50 measured after 48 hrs relative to control
# [8] = Inhibition of RTK/PI3K/AKT/mTOR signaling in human U87 cells assessed as down regulation of B4GALNT1 gene expression at cytotoxic IC50 measured after 48 hrs relative to control
# [9] = Inhibition of RTK/PI3K/AKT/mTOR signaling in human U87 cells assessed as down regulation of SAP30BP gene expression at cytotoxic IC50 measured after 48 hrs relative to control
# [10] = Inhibition of RTK/PI3K/AKT/mTOR signaling in human U87 cells assessed as down regulation of HSPH1 gene expression at cytotoxic IC50 measured after 48 hrs relative to control
# [11] = Inhibition of RTK/PI3K/AKT/mTOR signaling in human U87 cells assessed as down regulation of ASB8 gene expression at cytotoxic IC50 measured after 48 hrs relative to control
# [12] = Inhibition of RTK/PI3K/AKT/mTOR signaling in human U87 cells assessed as down regulation of TOR3A gene expression at cytotoxic IC50 measured after 48 hrs relative to control
# [13] = Inhibition of RTK/PI3K/AKT/mTOR signaling in human U87 cells assessed as down regulation of PLEKHB2 gene expression at cytotoxic IC50 measured after 48 hrs relative to control
# [14] = Inhibition of RTK/PI3K/AKT/mTOR signaling in human U87 cells assessed as down regulation of HMGB3 gene expression at cytotoxic IC50 measured after 48 hrs relative to control
# [15] = Inhibition of RTK/PI3K/AKT/mTOR signaling in human U87 cells assessed as down regulation of PCF11 gene expression at cytotoxic IC50 measured after 48 hrs relative to control
# [16] = Inhibition of RTK/PI3K/AKT/mTOR signaling in human U87 cells assessed as down regulation of OSGIN1 gene expression at cytotoxic IC50 measured after 48 hrs relative to control
# [17] = Inhibition of RTK/PI3K/AKT/mTOR signaling in human U87 cells assessed as down regulation of TRIB3 gene expression at cytotoxic IC50 measured after 48 hrs relative to control
# [18] = Inhibition of RTK/PI3K/AKT/mTOR signaling in human U87 cells assessed as up regulation of GDA gene expression at cytotoxic IC50 measured after 48 hrs relative to control
# [19] = Inhibition of RTK/PI3K/AKT/mTOR signaling in human U87 cells assessed as up regulation of leucine rich repeat containing 3 gene expression at cytotoxic IC50 measured after 48 hrs relative to control
# [20] = Inhibition of RTK/PI3K/AKT/mTOR signaling in human U87 cells assessed as up regulation of STEAP family member 1 gene expression at cytotoxic IC50 measured after 48 hrs relative to control
# [21] = Inhibition of RTK/PI3K/AKT/mTOR signaling in human U87 cells assessed as up regulation of TNFAIP3 interacting protein 1 gene expression at cytotoxic IC50 measured after 48 hrs relative to control
# [22] = Inhibition of RTK/PI3K/AKT/mTOR signaling in human U87 cells assessed as up regulation of protein phosphatase 1 regulatory subunit 3B gene expression at cytotoxic IC50 measured after 48 hrs relative to control
# [23] = Inhibition of RTK/PI3K/AKT/mTOR signaling in human U87 cells assessed as up regulation of TNF superfamily member 9 gene expression at cytotoxic IC50 measured after 48 hrs relative to control
# [24] = Inhibition of RTK/PI3K/AKT/mTOR signaling in human U87 cells assessed as up regulation of ERCC excision repair 1, endonuclease non-catalytic subunit gene expression at cytotoxic IC50 measured after 48 hrs relative to control
# [25] = Inhibition of RTK/PI3K/AKT/mTOR signaling in human U87 cells assessed as up regulation of EH domain containing 2 gene expression at cytotoxic IC50 measured after 48 hrs relative to control
# [26] = Inhibition of RTK/PI3K/AKT/mTOR signaling in human U87 cells assessed as up regulation of interferon regulatory factor 2 binding protein like gene expression at cytotoxic IC50 measured after 48 hrs relative to control
# [27] = Inhibition of RTK/PI3K/AKT/mTOR signaling in human U87 cells assessed as up regulation of BCL2 like 2 gene expression at cytotoxic IC50 measured after 48 hrs relative to control
# [28] = Inhibition of RTK/PI3K/AKT/mTOR signaling in human U87 cells assessed as up regulation of nicalin gene expression at cytotoxic IC50 measured after 48 hrs relative to control
# [29] = Inhibition of RTK/PI3K/AKT/mTOR signaling in human U87 cells assessed as up regulation of CDC28 protein kinase regulatory subunit 1B gene expression at cytotoxic IC50 measured after 48 hrs relative to control
# [30] = Inhibition of RTK/PI3K/AKT/mTOR signaling in human U87 cells assessed as up regulation of solute carrier family 33 member 1 gene expression at cytotoxic IC50 measured after 48 hrs relative to control
# [31] = Inhibition of RTK/PI3K/AKT/mTOR signaling in human U87 cells assessed as up regulation of NUP88 gene expression at cytotoxic IC50 measured after 48 hrs relative to control
# [32] = Inhibition of RTK/PI3K/AKT/mTOR signaling in human U87 cells assessed as up regulation of ARHGAP35 gene expression at cytotoxic IC50 measured after 48 hrs relative to control
smiles,measurement,setting,value
CC(=O)C(=NNc1ccccc1C#N)C(C)=O,log2FC,[1],-6.44
same,log2FC,[2],-1.25
same,log2FC,[3],-1.23
same,log2FC,[4],-1.02
same,log2FC,[5],-8.96
same,log2FC,[6],-1.01
same,log2FC,[7],-0.992
same,log2FC,[8],-0.958
same,log2FC,[9],-0.891
same,log2FC,[10],-3.63
same,log2FC,[11],-0.872
same,log2FC,[12],-0.808
same,log2FC,[13],-0.669
same,log2FC,[14],-0.637
same,log2FC,[15],-0.627
same,log2FC,[16],-0.551
same,log2FC,[17],-0.541
same,log2FC,[18],1.58
same,log2FC,[19],1.31
same,log2FC,[20],1.28
same,log2FC,[21],1.09
same,log2FC,[22],1.08
same,log2FC,[23],1.03
same,log2FC,[24],0.924
same,log2FC,[25],0.917
same,log2FC,[26],0.894
same,log2FC,[27],0.801
same,log2FC,[28],0.773
same,log2FC,[29],0.756
same,log2FC,[30],0.688
same,log2FC,[31],0.579
same,log2FC,[32],0.374

# — ChEMBL document CHEMBL4316593 (Eur J Med Chem, 2019)
